Test results reported in patent publication US8551921B2, “Method for determining the toxicity of an environmental or chemical sample” (priority 2000, dated 2013).

tested on: 11 microbial strains; assay: MARA plate Example 3, overall (11 microbial strains) and data base comparison; assay type: cell-based; settings: similarity value between the fingerprint of the unknown compound of Example 3 and that of the named known compound

Structure (SMILES)	Highest similarity of toxic fingerprint to known compounds in data base
OCCO [Ethylene Glycol]	0.10
OO [Hydrogen peroxide]	0.30
Oc1ccccc1 [Phenol]	0.60
